According to PubChem BioAssay AID504444 (National Center for Advancing Translational Sciences (NCATS), 2011):
Among all 360,000 compounds or so, about 7,500 (2.1%) were called active. This list was built around the results that the source calls inconclusive (neither active nor inactive); the mix of calls is not that of the screen. Calls follow the shape of the dose curve; as a rule, active = well fitted inhibition curve with a large enough effect; inconclusive = small, poorly fitted or top-dose-only effect, or effect the other way; inactive = flat fitted curve, though single readings scatter. A potency beside an inconclusive call is a rough fit, not a confirmed value.

Assay: Nrf2 qHTS screen for inhibitors; also: nearly all actives have a fitted effect of over 60% in size
Details: A549 ARE-Fluc reporter, luciferase luminescence, 18-24 h; series mostly up to 46 µM
Outline: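 In this cell-based qHTS, ARE-driven firefly luciferase in A549 cells reports Nrf2 activity; the luminescent signal after BugLite lysis is the measured value, with a prior CellTiter-Fluor read for cell health.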
Potency is read from the fitted curve at half-maximal effect.

Compound | Potency
Cc1nn(-c2ccccc2)c2c1c(C)c(CCC(=O)N1CCOCC1)c(=O)n2C | inconclusive: 1.64 µM [falling, partial curve, poor fit]
CCOc1ccc(NC(=O)c2nc(SCC)ncc2Cl)cc1 | inconclusive: 8.2 µM [falling, partial curve]
Cc1ccc(-c2nc(CSCC(=O)N3CCOCC3)c(C)o2)cc1 | inconclusive: 25.9 µM [falling, single point]
Cc1nc2cc(NCc3nc4ccccc4n3Cc3ccccc3)ccc2n1C | inconclusive: 1.84 µM [activator, full curve]
O=[N+]([O-])c1ccc(-c2nc(-c3cccs3)c(-c3cccs3)[nH]2)cc1 | inconclusive: 18.4 µM [falling, single point]
CCOc1ccc(C(=O)NC2C(=O)N3C(C(=O)O)=C(COC(C)=O)CSC23)cc1OCC (stereo not given) | inconclusive: 20.6 µM [activator, partial curve, poor fit]
O=C(Cn1cnc2c(nnn2Cc2ccc(F)cc2)c1=O)N1CCN(c2ccccc2)CC1 | inactive
Cc1cccc(NS(=O)(=O)c2cc3c4c(c2)C(C)C(=O)N4CCC3)c1 (stereo not given) | inconclusive: 16.4 µM [falling, partial curve, poor fit]
Cc1cc(NC(=O)c2c(F)cccc2F)n(-c2nc3ccccc3[nH]2)n1 | inconclusive: 20.6 µM [falling, partial curve, poor fit]
Cc1cc(=O)n(C)c(=O)n1CCCCCOc1cccc([N+](=O)[O-])c1 | inconclusive: 20.6 µM [falling, partial curve, poor fit]
CCc1cccc(-n2nnc(S(=O)(=O)c3ccc(OC)cc3)c2C)c1 | inconclusive: 29.1 µM [falling, single point]
O=C(c1cccc(Cl)c1)N1CCC(=O)N(C(COCc2cccc(Cl)c2)Cc2ccccc2)CC1 (stereo not given) | inactive
COc1ccc(N2CCN(C(=O)Cc3ccc(S(=O)(=O)N4CCOCC4)s3)CC2)cc1 | inconclusive: 11.6 µM [falling, partial curve, poor fit]
Cc1ccc(Cn2cc(CCC(=O)NCC(C)c3ccccc3)c3ccccc32)cc1 (stereo not given) | active: 18.4 µM
Cc1nc2ccccn2c1/C(O)=C1\C(=O)C(=O)N(CCN2CCOCC2)C1c1cccnc1 (stereo not given) | inconclusive: 1.46 µM [activator, full curve]
O=C1NNC(c2ccccc2)=N/C1=C\c1ccccc1 | inactive
COc1ccc(NC(=O)Nc2cc(F)ccc2C)cc1 | active: 20.6 µM
Cc1ccc(-n2nnnc2CCl)cc1 | inconclusive: 29.1 µM [falling, single point]
CC(C)C1Nc2ccc(C(=O)O)cc2C2C=CCC21 (stereo not given) | inactive
Cc1ccc(-c2nnc(SCC(=O)N(CC(C)C)c3c(N)n(Cc4ccccc4)c(=O)[nH]c3=O)n2N)cc1 | inactive
COc1ccc2cc3cc(C(=O)NCCN4CCN(c5ccccc5F)CC4)oc3nc2c1 | active: 18.4 µM
c1ccc(Nc2cccc(Nc3ccccc3)c2)cc1 | inconclusive: 32.6 µM [falling, single point]

Structural class: those above with two or more sulfur atoms
Compound | Potency
O=[N+]([O-])c1ccc(-c2nc(-c3cccs3)c(-c3cccs3)[nH]2)cc1 | inconclusive: 18.4 µM [falling, single point]
COc1ccc(N2CCN(C(=O)Cc3ccc(S(=O)(=O)N4CCOCC4)s3)CC2)cc1 | inconclusive: 11.6 µM [falling, partial curve, poor fit]

Further structures follow:

Compound | Potency
CCC(C)Sc1ccc([C@@H]2[C@H]3C(=O)N(CC)C(=O)[C@H]3[C@]3(C(=O)OC)CCCCN23)cc1 (stereo not given in full) | inconclusive: 18.4 µM [falling, partial curve]
CCOC(=O)/C(=C/C=C1\Sc2ccccc2N1CC)C(C)=O | inactive
CCOc1c(Cl)cc(/C=C/C(=O)N(CC)CC(=O)Nc2ccc(NC(C)=O)cc2)cc1OC | inconclusive: 11.6 µM [falling, partial curve]
CCN(C(=O)CSc1nc(-c2ccccc2)c(-c2ccccc2)[nH]1)C1CCS(=O)(=O)C1 (stereo not given) | inconclusive: 32.6 µM [falling, single point]
COc1cccc(C(=O)CSc2nnc(-c3cc(OC)c(OC)c(OC)c3)o2)c1 | inactive
COC(=O)c1ccc(CN2CCCC(C(=O)c3cc(F)ccc3OC)C2)cc1 (stereo not given) | inconclusive: 11.6 µM [falling, partial curve, poor fit]
Cc1cc(C)c2oc(C(=O)N(Cc3ccccc3)c3ccccn3)cc(=O)c2c1 | inconclusive: 29.1 µM [falling, single point]
O=C(Nc1ccc(-c2nc3ncccc3o2)cc1)c1ccc(Br)o1 | inconclusive: 8.2 µM [falling, partial curve, poor fit]
CCOCCCNC(=S)N1CCC(C(=O)c2ccc3c(c2)OCCO3)CC1 | inconclusive: 29.1 µM [falling, single point]
Cc1cc(O)cc(O)c1-c1onc(C(F)(F)F)c1-c1cscn1 | inconclusive: 18.4 µM [falling, single point]
Cc1ccc(S(=O)(=O)c2c(COC(=O)c3ccccc3Cl)c(-c3ccccc3)nn2C)cc1 | inconclusive: 25.9 µM [falling, partial curve]
CCOc1ccc(NC(=S)NCCCn2ccnc2)cc1 | inactive
CC(C)[C@H]1COCCS(=O)(=O)N1Cc1ccccc1-c1cccc2c1oc1ccccc12 | inconclusive: 16.4 µM [falling, single point]
COC(=O)C1=C(CCc2ccccc2)NC(=O)NC1c1ccc(Br)cc1 (stereo not given) | inconclusive: 11.6 µM [falling, partial curve, poor fit]
Oc1ccc(C[C@@H]2CNCCN2CCc2cc(C(F)(F)F)cc(C(F)(F)F)c2)cc1 | inconclusive: 29.1 µM [falling, single point]
CC(=O)c1cccc(NC(=O)c2cc(-c3cccs3)on2)c1 | inconclusive: 13 µM [activator, partial curve, poor fit]
Cc1nc2ccccc2c(=O)n1/N=C/c1cccs1 | inconclusive: 20.6 µM [activator, partial curve]
NS(=O)(=O)c1ccc(CCNC(=O)C(=O)NCC2OCCN2S(=O)(=O)c2ccc(Cl)cc2)cc1 (stereo not given) | inconclusive: 29.1 µM [falling, single point]
O=C(COC(=O)c1ccccc1Nc1ccccc1)NCc1ccccc1Cl | inconclusive: 32.6 µM [falling, single point]
Cc1ccc(-n2c(-c3ccc(Cl)cc3)n[nH]c2=S)c(C)c1 | inactive
COc1ccc(C2=C(C=C(C#N)C#N)C(c3ccccc3C)c3ccccc3O2)cc1OC (stereo not given) | inconclusive: 23.1 µM [falling, single point]
CCOC(=O)c1cnc2c(cnn2C)c1Cl | inconclusive: 32.6 µM [falling, single point]

Compound | Potency
O=C(CSc1nnc(-c2ccccc2)c2ccccc12)NCCN1C(=O)CSC1=O | inconclusive: 25.9 µM [falling, partial curve, poor fit]
O=c1cc(-c2ccc(O)c(O)c2)oc2ccc3ccccc3c12 | inconclusive: 9.2 µM [activator, partial curve]
CCOc1ccccc1CNC(=O)c1cc2occc2n1C | inactive
COc1ccc(CNC(=O)c2nn(-c3ccccc3)cc2OC)cc1 | inconclusive: 29.1 µM [falling, partial curve, poor fit]
Cc1ccc(NS(=O)(=O)c2ccc3ccccc3c2)cc1C | inconclusive: 25.9 µM [falling, partial curve]
C[C@]12c3[nH]c4ccc(Cl)cc4c3CCN1C(=O)[C@@H](CC(=O)NCCc1ccccn1)C[C@@H]2C(=O)N1CCCCC1 | inactive
Cc1ccc(S(=O)(=O)N(C(=O)c2ccncc2)c2ccc(OC(=O)c3ccncc3)c3ccccc23)cc1 | inactive
CCCCCN(C(=O)CCC(=O)OCC(=O)c1c(C)cc(C)cc1C)c1c(N)n(CCCC)c(=O)[nH]c1=O | inconclusive: 14.6 µM [falling, partial curve, poor fit]
COc1cc2c(C#CCCO)c(-c3ccc(C#N)cc3)oc(=O)c2cc1OC | inactive
N#CN1CCC(NS(=O)(=O)c2ccc(F)cc2)CC1 | inconclusive: 4.61 µM [activator, partial curve, poor fit]
CC(=O)N1c2ccc(S(=O)(=O)N3CCC(C(=O)NC4CCC(C)CC4)CC3)cc2CC1C (stereo not given) | inconclusive: 14.6 µM [falling, partial curve]
O=C(CNS(=O)(=O)c1ccc(F)cc1)Nc1ccc(C(F)(F)F)cc1 | inconclusive: 25.9 µM [falling, partial curve, poor fit]
COc1ccc(-c2cc(C(F)(F)F)nc(SCC(=O)Nc3ccc(O)cc3)n2)cc1OC | inactive
COC(=O)C1C(=O)C=C(Nc2ccc(F)cc2)CC1c1ccc(OC)cc1 (stereo not given) | inconclusive: 9.2 µM [activator, partial curve]
CC(=O)C12OC(C)(C)OC1CC1C3CCC4=CC(=O)C=CC4(C)C3(F)C(O)CC12C (stereo not given) | active: 0.0082 µM
COc1ccc(-c2cn(CCC(=O)O)c(-c3ccncc3)n2)cc1 | inconclusive: 0.13 µM [falling, full curve, poor fit]
Cc1cccc(C(=O)Nc2cc3c(cc2N2CCOCC2)n(C)c(=O)n3C)c1 | inconclusive: 1.84 µM [falling, full curve, poor fit]
CCCC[C@@H]1CCCO[C@@](C(=O)NCCOC)(C(F)(F)F)C1 | inactive
Cc1csc(NC(=O)c2ccc(-c3ccc(Cl)cc3Cl)o2)n1 | inconclusive: 3.66 µM [activator, partial curve, poor fit]
CCN1C(C(=O)c2ccccc2)=C(OC(=O)COc2ccccc2)c2ccccc2S1(=O)=O | inconclusive: 32.6 µM [falling, single point]
COc1cc(NS(=O)(=O)c2cc(C(=O)NCCc3ccccn3)ccc2OC)cc(OC)c1 | inactive

Laid out differently: entries from further up.
Cc1nc2ccccn2c1/C(O)=C1\C(=O)C(=O)N(CCN2CCOCC2)C1c1cccnc1 (stereo not given)
  Potency: inconclusive: 1.46 µM [activator, full curve]
COc1ccc2cc3cc(C(=O)NCCN4CCN(c5ccccc5F)CC4)oc3nc2c1
  Potency: active: 18.4 µM
O=C(Nc1ccc(-c2nc3ncccc3o2)cc1)c1ccc(Br)o1
  Potency: inconclusive: 8.2 µM [falling, partial curve, poor fit]
CCOc1ccc(NC(=S)NCCCn2ccnc2)cc1
  Potency: inactive
